Source: PMC7898745
These are yes or no findings as the source states them, for the method shown. In cells and extracts the contact can be indirect. Some binding calls cover weakened binding; strength is not graded here.

Chains of the proteins cited; added tags and fusions are not shown.
UniProt P28347: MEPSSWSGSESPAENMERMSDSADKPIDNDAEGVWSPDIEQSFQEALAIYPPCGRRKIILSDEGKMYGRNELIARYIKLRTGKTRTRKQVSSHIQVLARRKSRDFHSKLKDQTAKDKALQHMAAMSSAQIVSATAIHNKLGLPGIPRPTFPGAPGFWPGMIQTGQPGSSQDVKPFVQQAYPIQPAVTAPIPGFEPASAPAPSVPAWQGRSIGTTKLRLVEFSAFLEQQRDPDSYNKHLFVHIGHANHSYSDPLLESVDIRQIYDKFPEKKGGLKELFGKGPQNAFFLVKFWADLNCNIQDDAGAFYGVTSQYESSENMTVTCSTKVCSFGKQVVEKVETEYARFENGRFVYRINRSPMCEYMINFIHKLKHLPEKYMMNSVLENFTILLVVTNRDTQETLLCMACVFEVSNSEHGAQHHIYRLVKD

Biological target: TEAD1 (human (endogenous in HGC27)) (UniProt P28347)
Assay: co-IP; HGC27 cells; 500 ug protein with 2 ug primary antibody at 4 C for 4 h, Protein A/G PLUS agarose beads overnight at 4 C; detected by Western blot

- binding: binds
B1: SNAI2 (protein, UniProt O43623 1-268)
chain: MPRSFLVKKHFNASKKPNYSELDTHTVIISPYLYESYSMPVIPQPEILSSGAYSPITVWTTAAPFHAQLPNGLSPLSGYSSSLGRVSPPPPSDTSSKDHSGSESPISDEEERLQSKLSDPHAIEAEKFQCNLCNKTYSTFSGLAKHKQLHCDAQSRKSFSCKYCDKEYVSLGALKMHIRTHTLPCVCKICGKAFSRPWLLQGHIRTHTGEKPFSCPHCNRAFADRSNLRAHLQTHSDVKKYQCKNCSKTFSRMSLLHKHEESGCCVAH
